Where two headings read alike, the source gives them in different places. Results are given in words; binding and its absence hold for the method and conditions named. Binding seen in cells or lysates may run through a third protein. Binding can be weak; no strength is given. Values belong to the molecule of their own block, whether it stands above or below them.
Assays:
[1] = biological target: mRFP-tagged CASK-WT (human) (UniProt O14936); experiment: co-IP; HEK293T cells cotransfected, lysed in RIPA buffer 24 h after transfection; mRFP-tagged CASK precipitated with RFP-Trap agarose beads, 2 h at 4°C, five washes with RIPA buffer; Western blotting
[2] = biological target: mRFP-tagged CASK-WT (human) (UniProt O14936); experiment: as above; remark: listed apart in the source

Protein sequences, listed by entry. Tags and fused reporters are not part of them. Lines headed by an entry give the natural chain unless they say otherwise; changes in a name come on top. Residues count along the entry.
UniProt O14936: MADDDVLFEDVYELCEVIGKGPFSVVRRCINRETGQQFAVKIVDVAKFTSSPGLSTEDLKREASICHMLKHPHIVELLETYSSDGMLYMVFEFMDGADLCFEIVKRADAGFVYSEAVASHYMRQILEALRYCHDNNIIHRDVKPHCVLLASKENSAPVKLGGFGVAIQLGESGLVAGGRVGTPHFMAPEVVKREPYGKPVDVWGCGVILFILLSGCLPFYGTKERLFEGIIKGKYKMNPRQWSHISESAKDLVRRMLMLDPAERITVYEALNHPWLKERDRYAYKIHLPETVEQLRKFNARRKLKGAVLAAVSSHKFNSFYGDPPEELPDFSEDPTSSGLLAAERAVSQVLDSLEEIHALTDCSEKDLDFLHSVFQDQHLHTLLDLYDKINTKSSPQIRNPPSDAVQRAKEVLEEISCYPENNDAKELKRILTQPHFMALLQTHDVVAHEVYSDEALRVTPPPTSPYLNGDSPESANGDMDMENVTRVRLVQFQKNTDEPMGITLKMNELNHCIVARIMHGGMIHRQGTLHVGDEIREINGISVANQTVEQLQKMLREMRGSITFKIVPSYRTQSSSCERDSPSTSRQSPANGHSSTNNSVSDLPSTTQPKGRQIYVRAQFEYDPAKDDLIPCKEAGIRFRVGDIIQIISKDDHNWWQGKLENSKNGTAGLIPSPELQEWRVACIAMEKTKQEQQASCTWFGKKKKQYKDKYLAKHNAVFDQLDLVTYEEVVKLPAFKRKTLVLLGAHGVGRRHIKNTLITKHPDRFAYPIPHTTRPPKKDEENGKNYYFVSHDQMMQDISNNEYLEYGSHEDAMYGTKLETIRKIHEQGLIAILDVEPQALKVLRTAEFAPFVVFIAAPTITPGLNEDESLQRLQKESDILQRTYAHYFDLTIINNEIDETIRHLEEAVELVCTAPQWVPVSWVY
UniProt O75334: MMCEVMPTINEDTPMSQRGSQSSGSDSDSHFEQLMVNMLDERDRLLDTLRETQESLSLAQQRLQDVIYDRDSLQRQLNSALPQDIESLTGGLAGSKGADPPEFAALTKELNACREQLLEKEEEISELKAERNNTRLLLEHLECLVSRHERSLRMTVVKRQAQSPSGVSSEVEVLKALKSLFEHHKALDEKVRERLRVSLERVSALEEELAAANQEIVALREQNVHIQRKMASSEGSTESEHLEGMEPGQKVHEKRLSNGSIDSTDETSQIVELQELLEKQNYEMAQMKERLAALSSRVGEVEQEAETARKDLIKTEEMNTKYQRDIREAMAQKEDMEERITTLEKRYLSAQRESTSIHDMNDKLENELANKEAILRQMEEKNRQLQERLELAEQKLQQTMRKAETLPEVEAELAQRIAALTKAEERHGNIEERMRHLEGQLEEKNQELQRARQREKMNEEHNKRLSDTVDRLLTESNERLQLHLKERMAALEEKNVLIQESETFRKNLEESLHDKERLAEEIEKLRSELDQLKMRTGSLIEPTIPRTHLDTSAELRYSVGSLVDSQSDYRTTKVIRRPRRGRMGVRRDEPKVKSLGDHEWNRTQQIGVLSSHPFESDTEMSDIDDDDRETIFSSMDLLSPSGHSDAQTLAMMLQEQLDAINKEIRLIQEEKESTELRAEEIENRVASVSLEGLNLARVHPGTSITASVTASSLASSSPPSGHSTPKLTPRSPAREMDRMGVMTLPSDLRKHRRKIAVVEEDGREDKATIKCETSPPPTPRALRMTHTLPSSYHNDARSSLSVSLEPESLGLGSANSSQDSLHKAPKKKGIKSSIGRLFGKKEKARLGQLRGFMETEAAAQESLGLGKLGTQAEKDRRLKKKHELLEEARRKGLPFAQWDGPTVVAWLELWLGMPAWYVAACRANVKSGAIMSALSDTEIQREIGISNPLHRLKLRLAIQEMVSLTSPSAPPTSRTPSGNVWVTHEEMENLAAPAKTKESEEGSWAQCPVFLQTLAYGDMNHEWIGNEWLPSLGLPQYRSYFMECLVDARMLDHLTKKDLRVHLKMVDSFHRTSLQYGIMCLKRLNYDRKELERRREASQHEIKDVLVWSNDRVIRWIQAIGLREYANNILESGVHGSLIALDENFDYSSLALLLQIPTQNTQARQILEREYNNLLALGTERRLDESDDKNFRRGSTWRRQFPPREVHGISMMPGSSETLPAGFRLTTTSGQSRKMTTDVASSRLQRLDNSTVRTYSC
UniProt P0DI97, residues 47-468: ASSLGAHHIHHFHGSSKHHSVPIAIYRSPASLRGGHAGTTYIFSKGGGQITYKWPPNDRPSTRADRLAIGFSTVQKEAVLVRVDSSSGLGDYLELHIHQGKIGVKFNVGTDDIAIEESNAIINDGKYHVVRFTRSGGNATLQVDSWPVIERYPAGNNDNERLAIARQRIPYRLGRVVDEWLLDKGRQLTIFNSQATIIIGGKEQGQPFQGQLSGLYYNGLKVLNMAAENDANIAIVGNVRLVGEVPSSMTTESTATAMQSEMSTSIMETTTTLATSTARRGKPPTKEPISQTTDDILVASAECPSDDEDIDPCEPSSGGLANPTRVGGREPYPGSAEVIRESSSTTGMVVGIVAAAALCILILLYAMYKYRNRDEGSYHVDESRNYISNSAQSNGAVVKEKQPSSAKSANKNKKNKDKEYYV

binding [1]: binds
Molecule: HA-tagged Liprin-α2 (from UniProt O75334 1-1257)

binding [1]: binds
Molecule: HA-tagged Neurexin-1β (from UniProt P0DI97 47-468)

binding [2]: binds
B1: Veli1 (protein, UniProt O14910 1-233)
chain: MLKPSVTSAPTADMATLTVVQPLTLDRDVARAIELLEKLQESGEVPVHKLQSLKKVLQSEFCTAIREVYQYMHETITVNGCPEFRARATAKATVAAFAASEGHSHPRVVELPKTDEGLGFNVMGGKEQNSPIYISRIIPGGVAERHGGLKRGDQLLSVNGVSVEGEHHEKAVELLKAAKDSVKLVVRYTPKVLEEMEARFEKLRTARRRQQQQLLIQQQQQQQQQQTQQNHMS
